Source: article PMC11564991
No constants are given. Whether binding was seen depends on the method and setting. Binding seen in cells or lysates may run through a third protein. Some binding calls cover weakened binding; strength is not graded here.

Biological target: T1, Cell Migration Inducing Hyaluronidase 1 (CEMIP) (human (endogenous in keloid fibroblasts)) (UniProt Q8WUJ3)
T1 sequence: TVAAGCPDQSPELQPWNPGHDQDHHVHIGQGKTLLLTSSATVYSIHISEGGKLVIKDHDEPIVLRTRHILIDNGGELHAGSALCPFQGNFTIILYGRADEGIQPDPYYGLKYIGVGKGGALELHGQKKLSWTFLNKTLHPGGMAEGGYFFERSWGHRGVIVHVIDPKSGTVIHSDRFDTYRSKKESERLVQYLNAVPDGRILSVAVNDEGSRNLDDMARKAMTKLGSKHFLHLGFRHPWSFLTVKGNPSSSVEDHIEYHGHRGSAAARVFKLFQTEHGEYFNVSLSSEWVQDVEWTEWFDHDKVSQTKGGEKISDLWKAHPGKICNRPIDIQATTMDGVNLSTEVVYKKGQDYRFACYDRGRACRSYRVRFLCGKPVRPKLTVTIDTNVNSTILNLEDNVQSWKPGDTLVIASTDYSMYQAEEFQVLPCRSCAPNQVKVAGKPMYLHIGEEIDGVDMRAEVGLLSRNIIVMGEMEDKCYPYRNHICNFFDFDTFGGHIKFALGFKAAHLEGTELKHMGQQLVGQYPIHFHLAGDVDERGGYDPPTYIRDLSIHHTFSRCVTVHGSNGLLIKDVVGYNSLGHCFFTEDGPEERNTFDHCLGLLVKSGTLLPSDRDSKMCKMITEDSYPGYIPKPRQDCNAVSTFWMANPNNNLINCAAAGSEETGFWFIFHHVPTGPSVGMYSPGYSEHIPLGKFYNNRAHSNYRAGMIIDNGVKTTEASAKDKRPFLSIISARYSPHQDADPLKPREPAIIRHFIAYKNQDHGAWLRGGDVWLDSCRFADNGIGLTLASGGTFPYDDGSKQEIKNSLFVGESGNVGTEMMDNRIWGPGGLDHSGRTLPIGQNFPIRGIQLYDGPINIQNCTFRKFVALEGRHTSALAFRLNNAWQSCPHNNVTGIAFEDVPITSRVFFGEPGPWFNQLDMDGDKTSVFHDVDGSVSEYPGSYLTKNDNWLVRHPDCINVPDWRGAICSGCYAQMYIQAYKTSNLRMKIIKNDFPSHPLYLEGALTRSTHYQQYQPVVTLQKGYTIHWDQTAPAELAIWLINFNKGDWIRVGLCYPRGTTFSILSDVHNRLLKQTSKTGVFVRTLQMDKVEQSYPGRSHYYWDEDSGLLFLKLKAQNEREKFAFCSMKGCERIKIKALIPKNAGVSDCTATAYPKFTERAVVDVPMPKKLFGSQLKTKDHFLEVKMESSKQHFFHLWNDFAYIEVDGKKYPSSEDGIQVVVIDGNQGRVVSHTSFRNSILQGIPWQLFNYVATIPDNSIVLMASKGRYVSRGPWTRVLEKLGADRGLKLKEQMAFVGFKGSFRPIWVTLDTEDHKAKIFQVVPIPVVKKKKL
Test: co-IP; lysates of keloid fibroblasts (150 mM NaCl, 10 mM HEPES pH 7.4, 1% NP-40) incubated with CEMIP or SPARC antibody and protein G agarose (or HA affinity agarose) overnight at 4 °C; western blot; also done after shRNA silencing of CEMIP

binding: binds
B1: Secreted Protein Acidic and Rich in Cysteine (SPARC) (protein, UniProt P09486 18-303)
chain: APQQEALPDETEVVEETVAEVTEVSVGANPVQVEVGEFDDGAEETEEEVVAENPCQNHHCKHGKVCELDENNTPMCVCQDPTSCPAPIGEFEKVCSNDNKTFDSSCHFFATKCTLEGTKKGHKLHLDYIGPCKYIPPCLDSELTEFPLRMRDWLKNVLVTLYERDEDNNLLTEKQKLRVKKIHENEKRLEAGDHPVELLARDFEKNYNMYIFPVHWQFGQLDQHPIDGYLSHTELAPLRAPLIPMEHCTTRFFETCDLDNDKYIALDEWAGCFGIKQKDIDKDLVI
